Experimental data: article doi:10.1101/335430
Results are given in words; binding and its absence hold for the method and conditions named. In cells and extracts the contact can be indirect. Some results given as binding are weak or reduced against the parent protein; the word gives no strength. Blank lines part the entries; values can stand above or below the molecule they belong to.

By UniProt entry, the sequences of proteins in these tests, tags left out.
UniProt Q07820: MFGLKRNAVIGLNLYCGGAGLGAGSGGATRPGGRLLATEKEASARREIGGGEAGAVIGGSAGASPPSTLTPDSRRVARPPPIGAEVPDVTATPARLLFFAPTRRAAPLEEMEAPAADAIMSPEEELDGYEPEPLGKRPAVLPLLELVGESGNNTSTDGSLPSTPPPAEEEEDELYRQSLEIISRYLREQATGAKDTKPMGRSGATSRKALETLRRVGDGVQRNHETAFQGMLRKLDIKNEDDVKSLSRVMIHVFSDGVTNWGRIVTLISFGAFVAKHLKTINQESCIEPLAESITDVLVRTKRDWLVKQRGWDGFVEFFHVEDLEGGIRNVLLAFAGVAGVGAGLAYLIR

Assays:
[1] = molecular target: human MCL-1 protein expressed in mouse cells (human) (UniProt Q07820); assay: co-IP
[2] = molecular target: T1, mouse MCL-1 (mouse (endogenous in thymocytes)), P97287; assay: co-IP; details: remark: other sources report otherwise
T1 chain: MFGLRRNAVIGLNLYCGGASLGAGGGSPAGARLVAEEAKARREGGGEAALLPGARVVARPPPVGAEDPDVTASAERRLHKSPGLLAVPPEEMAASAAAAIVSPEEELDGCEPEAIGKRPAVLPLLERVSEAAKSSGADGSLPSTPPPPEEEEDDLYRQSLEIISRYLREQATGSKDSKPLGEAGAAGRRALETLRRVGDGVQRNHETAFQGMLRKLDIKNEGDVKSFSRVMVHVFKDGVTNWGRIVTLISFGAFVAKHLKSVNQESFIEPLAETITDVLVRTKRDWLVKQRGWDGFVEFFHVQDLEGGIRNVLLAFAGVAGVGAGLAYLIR

binding [1]: binds
Molecule: mouse BIM (from UniProt O54918 1-196)

binding [2]: binds
B1: mouse BIM, O54918 1-196 (protein)
chain: MAKQPSDVSSECDREGGQLQPAERPPQLRPGAPTSLQTEPQGNPDGEGDRCPHGSPQGPLAPPASPGPFATRSPLFIFVRRSSLLSRSSSGYFSFDTDRSPAPMSCDKSTQTPSPPCQAFNHYLSAMASIRQSQEEPEDLRPEIRIAQELRRIGDEFNETYTRRVFANDYREAEDHPQMVILQLLRFIFRLVWRRH
